For this test, the target named is T1, TAP-tagged Mot3 (S. cerevisiae) (UniProt P54785).
T1 sequence: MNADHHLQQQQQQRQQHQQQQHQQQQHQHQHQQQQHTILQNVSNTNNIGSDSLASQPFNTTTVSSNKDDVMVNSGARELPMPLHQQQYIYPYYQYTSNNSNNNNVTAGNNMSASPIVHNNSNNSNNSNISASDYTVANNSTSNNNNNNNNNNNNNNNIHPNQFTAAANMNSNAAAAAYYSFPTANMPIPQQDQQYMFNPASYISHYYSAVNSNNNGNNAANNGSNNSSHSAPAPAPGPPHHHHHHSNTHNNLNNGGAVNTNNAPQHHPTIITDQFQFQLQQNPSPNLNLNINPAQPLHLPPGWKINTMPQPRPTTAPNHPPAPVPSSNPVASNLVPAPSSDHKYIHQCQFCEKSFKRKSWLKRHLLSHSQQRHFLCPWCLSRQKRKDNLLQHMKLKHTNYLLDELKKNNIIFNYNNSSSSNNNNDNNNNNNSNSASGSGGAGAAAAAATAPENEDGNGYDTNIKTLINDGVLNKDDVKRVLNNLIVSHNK
The test is described as follows: co-IP; TAP pull-down: extracts of yeast cells expressing a TAP-tagged protein and tagged Gis1 or Gis1 deletion protein incubated with IgG-Sepharose beads, 4 °C; Western blot with anti-TAP, anti-FLAG or anti-Myc.

No constants are given. Whether binding was seen depends on the method and setting. In cells and extracts the contact can be indirect. Binding calls can cover weak binding; strength is not graded here. Where a sequence is shown, tags or fusion partners need not be part of it.

In the case of “Myc-tagged Gis1ΔNC (yeast (S. cerevisiae)) (domain or fragment)”, the binding entry was “binds”.

The values are drawn from publication PMC7140707.
